Article PMC8599580
Results are given in words; binding and its absence hold for the method and conditions named. Some results given as binding are weak or reduced against the parent protein; the word gives no strength.

Protein sequences, listed by entry. Tags and fused reporters are not part of them. Residues count along the entry.
UniProt O13057, residues 25-260: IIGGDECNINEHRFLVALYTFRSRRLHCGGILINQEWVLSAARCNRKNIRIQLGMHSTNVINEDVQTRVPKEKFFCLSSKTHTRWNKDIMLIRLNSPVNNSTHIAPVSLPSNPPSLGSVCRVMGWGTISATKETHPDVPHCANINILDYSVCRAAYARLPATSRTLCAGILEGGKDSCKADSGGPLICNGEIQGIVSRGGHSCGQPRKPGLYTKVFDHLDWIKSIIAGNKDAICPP
UniProt P05620, residues 25-260: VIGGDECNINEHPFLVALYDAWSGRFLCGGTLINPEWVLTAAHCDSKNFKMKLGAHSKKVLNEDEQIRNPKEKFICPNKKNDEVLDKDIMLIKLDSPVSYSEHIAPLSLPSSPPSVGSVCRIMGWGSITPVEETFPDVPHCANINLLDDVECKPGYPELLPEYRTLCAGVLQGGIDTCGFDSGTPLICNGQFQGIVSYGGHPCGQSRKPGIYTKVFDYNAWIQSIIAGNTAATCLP

Experiments:
[1] = molecular target: thrombin-like serine protease TLSP2 (TLf2) (Protobothrops flavoviridis) (UniProt O13057); experiment: SPR; BIAcore X; TLf2 or TLf1 amine-coupled on CM5 chip; BPII or [Asp49] PLA2 injected as analytes (12.5-100 ug/ml) in HBS (10 mM HEPES pH 7.4, 0.15 M NaCl, 3 mM EDTA, 0.005% P-20), 20 uL/min; unmodified CM5 as control; regeneration 10 mM HCl; both purified
[2] = molecular target: flavoxobin (TLf1) (Protobothrops flavoviridis) (UniProt P05620); experiment: as above

B1: P. flavoviridis [Asp49] PLA2 (enzyme, UniProt P06859 17-138)
chain: GLWQFENMIIKVVKKSGILSYSAYGCYCGWGGRGKPKDATDRCCFVHDCCYGKVTGCNPKLGKYTYSWNNGDIVCEGDGPCKEVCECDRAAAICFRDNLDTYDRNKYWRYPASNCQEDSEPC
binding [1]: binds weakly
binding [2]: binds weakly
